Where a chain is given by its changes, count along the chain named. For some of these results: Weaker means in comparison with the reference protein, sequence or condition of that experiment. Tags and fusion partners may be left off the protein sequences shown. For some of these results: For at least one entry, the source does not settle the construct or the ends of the probe. For some of these results: At least one verdict rests on a figure or table, not on a statement of the authors.
How the values were obtained:
Experiment in all cases: EMSA
[1] = target: T1, Redβ R152A (Bacteriophage λ (Enterobacteria phage λ)) (UniProt P03698); conditions: 5 mM Mg2+, second strand added after first; ssDNA EMSA: 10 nM DNA, 50 mM potassium phosphate pH 6.0, 5 mM EDTA, 5% glycerol, 0.1 mg/ml BSA, 37°C, 40 min, then 0.1% glutaraldehyde; recombinant protein; residues 1-261; protein details: His6 removed, N-terminal GSH left; label: 5' Cy3 on strand 1, strand 2 unlabeled
T1 sequence (looked up): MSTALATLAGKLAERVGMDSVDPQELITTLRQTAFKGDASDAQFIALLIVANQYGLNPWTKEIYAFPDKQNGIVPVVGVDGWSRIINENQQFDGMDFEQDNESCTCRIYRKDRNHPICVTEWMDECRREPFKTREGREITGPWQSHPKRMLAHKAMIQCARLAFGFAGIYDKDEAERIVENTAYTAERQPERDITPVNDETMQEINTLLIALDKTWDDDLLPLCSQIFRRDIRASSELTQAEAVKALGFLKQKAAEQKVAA

[2] = target: T2, Redβ K172A (Bacteriophage λ (Enterobacteria phage λ)) (UniProt P03698); conditions: 5 mM Mg2+, second strand added after first; ssDNA EMSA: 10 nM DNA, 50 mM potassium phosphate pH 6.0, 5 mM EDTA, 5% glycerol, 0.1 mg/ml BSA, 37°C, 40 min, then 0.1% glutaraldehyde; recombinant protein; residues 1-261; protein details: His6 removed, N-terminal GSH left; label: 5' Cy3 on strand 1, strand 2 unlabeled
T2 sequence (looked up): T1 sequence (looked up) with A152R, K172A

[3] = target: T3, Redβ K148A (Bacteriophage λ (Enterobacteria phage λ)) (UniProt P03698); conditions: 5 mM Mg2+, second strand added after first; ssDNA EMSA: 10 nM DNA, 50 mM potassium phosphate pH 6.0, 5 mM EDTA, 5% glycerol, 0.1 mg/ml BSA, 37°C, 40 min, then 0.1% glutaraldehyde; recombinant protein; residues 1-261; protein details: His6 removed, N-terminal GSH left; label: 5' Cy3 on strand 1, strand 2 unlabeled
T3 sequence (looked up): T1 sequence (looked up) with K148A, A152R

[4] = target: T4, Redβ R149A (Bacteriophage λ (Enterobacteria phage λ)) (UniProt P03698); conditions: 5 mM Mg2+, second strand added after first; ssDNA EMSA: 10 nM DNA, 50 mM potassium phosphate pH 6.0, 5 mM EDTA, 5% glycerol, 0.1 mg/ml BSA, 37°C, 40 min, then 0.1% glutaraldehyde; recombinant protein; residues 1-261; protein details: His6 removed, N-terminal GSH left; label: 5' Cy3 on strand 1, strand 2 unlabeled
T4 sequence (looked up): T1 sequence (looked up) with R149A, A152R

[5] = target: T5, Redβ V77A (Bacteriophage λ (Enterobacteria phage λ)) (UniProt P03698); conditions: 5 mM Mg2+, second strand added after first; ssDNA EMSA: 10 nM DNA, 50 mM potassium phosphate pH 6.0, 5 mM EDTA, 5% glycerol, 0.1 mg/ml BSA, 37°C, 40 min, then 0.1% glutaraldehyde; recombinant protein; residues 1-261; protein details: His6 removed, N-terminal GSH left; label: 5' Cy3 on strand 1, strand 2 unlabeled
T5 sequence (looked up): T1 sequence (looked up) with V77A, A152R

[6] = target: T6, Redβ WT (Bacteriophage λ (Enterobacteria phage λ)) (UniProt P03698); conditions: 5 mM Mg2+, second strand added after first; ssDNA EMSA: 10 nM DNA, 50 mM potassium phosphate pH 6.0, 5 mM EDTA, 5% glycerol, 0.1 mg/ml BSA, 37°C, 40 min, then 0.1% glutaraldehyde; recombinant protein; residues 1-261; label: 5' Cy3 on strand 1, strand 2 unlabeled
T6 sequence (looked up): T1 sequence (looked up) with A152R

[7] = target: T7, Redβ V79A (Bacteriophage λ (Enterobacteria phage λ)) (UniProt P03698); conditions: 5 mM Mg2+, second strand added after first; ssDNA EMSA: 10 nM DNA, 50 mM potassium phosphate pH 6.0, 5 mM EDTA, 5% glycerol, 0.1 mg/ml BSA, 37°C, 40 min, then 0.1% glutaraldehyde; recombinant protein; residues 1-261; protein details: His6 removed, N-terminal GSH left; label: 5' Cy3 on strand 1, strand 2 unlabeled
T7 sequence (looked up): T1 sequence (looked up) with V79A, A152R

[8] = target: T8, Redβ R161A (Bacteriophage λ (Enterobacteria phage λ)) (UniProt P03698); conditions: 5 mM Mg2+, second strand added after first; ssDNA EMSA: 10 nM DNA, 50 mM potassium phosphate pH 6.0, 5 mM EDTA, 5% glycerol, 0.1 mg/ml BSA, 37°C, 40 min, then 0.1% glutaraldehyde; recombinant protein; residues 1-261; protein details: His6 removed, N-terminal GSH left; label: 5' Cy3 on strand 1, strand 2 unlabeled
T8 sequence (looked up): T1 sequence (looked up) with A152R, R161A

[9] = target: T9, Redβ D80A (Bacteriophage λ (Enterobacteria phage λ)) (UniProt P03698); conditions: 5 mM Mg2+, second strand added after first; ssDNA EMSA: 10 nM DNA, 50 mM potassium phosphate pH 6.0, 5 mM EDTA, 5% glycerol, 0.1 mg/ml BSA, 37°C, 40 min, then 0.1% glutaraldehyde; recombinant protein; residues 1-261; protein details: His6 removed, N-terminal GSH left; label: 5' Cy3 on strand 1, strand 2 unlabeled
T9 sequence (looked up): T1 sequence (looked up) with D80A, A152R

[10] = target: T10, Redβ G78A (Bacteriophage λ (Enterobacteria phage λ)) (UniProt P03698); conditions: 5 mM Mg2+, second strand added after first; ssDNA EMSA: 10 nM DNA, 50 mM potassium phosphate pH 6.0, 5 mM EDTA, 5% glycerol, 0.1 mg/ml BSA, 37°C, 40 min, then 0.1% glutaraldehyde; recombinant protein; residues 1-261; protein details: His6 removed, N-terminal GSH left; label: 5' Cy3 on strand 1, strand 2 unlabeled
T10 sequence (looked up): T1 sequence (looked up) with G78A, A152R

[11] = target: T11, Redβ K132A (Bacteriophage λ (Enterobacteria phage λ)) (UniProt P03698); conditions: 5 mM Mg2+, second strand added after first; ssDNA EMSA: 10 nM DNA, 50 mM potassium phosphate pH 6.0, 5 mM EDTA, 5% glycerol, 0.1 mg/ml BSA, 37°C, 40 min, then 0.1% glutaraldehyde; recombinant protein; residues 1-261; protein details: His6 removed, N-terminal GSH left; label: 5' Cy3 on strand 1, strand 2 unlabeled
T11 sequence (looked up): T1 sequence (looked up) with K132A, A152R

[12] = target: T12, Redβ Y64A (Bacteriophage λ (Enterobacteria phage λ)) (UniProt P03698); conditions: 5 mM Mg2+, second strand added after first; ssDNA EMSA: 10 nM DNA, 50 mM potassium phosphate pH 6.0, 5 mM EDTA, 5% glycerol, 0.1 mg/ml BSA, 37°C, 40 min, then 0.1% glutaraldehyde; recombinant protein; residues 1-261; protein details: His6 removed, N-terminal GSH left; label: 5' Cy3 on strand 1, strand 2 unlabeled
T12 sequence (looked up): T1 sequence (looked up) with Y64A, A152R

[13] = target: T13, Redβ K69A (Bacteriophage λ (Enterobacteria phage λ)) (UniProt P03698); conditions: 5 mM Mg2+, second strand added after first; ssDNA EMSA: 10 nM DNA, 50 mM potassium phosphate pH 6.0, 5 mM EDTA, 5% glycerol, 0.1 mg/ml BSA, 37°C, 40 min, then 0.1% glutaraldehyde; recombinant protein; residues 1-261; protein details: His6 removed, N-terminal GSH left; label: 5' Cy3 on strand 1, strand 2 unlabeled
T13 sequence (looked up): T1 sequence (looked up) with K69A, A152R

Does “TGCGGATGGCTTAGAGCTTAATTGCTGAATCTGGTGCTGTAGCTCAACAT (double strand) [50-minus + 50-plus, sequentially added complementary strands]” bind [1]?
Result: binds more weakly

Does “TGCGGATGGCTTAGAGCTTAATTGCTGAATCTGGTGCTGTAGCTCAACAT (double strand) [50-minus + 50-plus, sequentially added complementary strands]” bind [2]?
Result: binds more weakly

Does “TGCGGATGGCTTAGAGCTTAATTGCTGAATCTGGTGCTGTAGCTCAACAT (double strand) [50-minus + 50-plus, sequentially added complementary strands]” bind [3]?
Result: binds more weakly

Does “TGCGGATGGCTTAGAGCTTAATTGCTGAATCTGGTGCTGTAGCTCAACAT (double strand) [50-minus + 50-plus, sequentially added complementary strands]” bind [4]?
Result: binds more weakly

Does “TGCGGATGGCTTAGAGCTTAATTGCTGAATCTGGTGCTGTAGCTCAACAT (double strand) [50-minus + 50-plus, sequentially added complementary strands]” bind [5]?
Result: binds more weakly

Does “TGCGGATGGCTTAGAGCTTAATTGCTGAATCTGGTGCTGTAGCTCAACAT (double strand) [50-minus + 50-plus, sequentially added complementary strands]” bind [6]?
Result: binds

Does “TGCGGATGGCTTAGAGCTTAATTGCTGAATCTGGTGCTGTAGCTCAACAT (double strand) [50-minus + 50-plus, sequentially added complementary strands]” bind [7]?
Result: binds more weakly

Does “TGCGGATGGCTTAGAGCTTAATTGCTGAATCTGGTGCTGTAGCTCAACAT (double strand) [50-minus + 50-plus, sequentially added complementary strands]” bind [8]?
Result: binds more weakly

Does “TGCGGATGGCTTAGAGCTTAATTGCTGAATCTGGTGCTGTAGCTCAACAT (double strand) [50-minus + 50-plus, sequentially added complementary strands]” bind [9]?
Result: binds more weakly

Does “TGCGGATGGCTTAGAGCTTAATTGCTGAATCTGGTGCTGTAGCTCAACAT (double strand) [50-minus + 50-plus, sequentially added complementary strands]” bind [10]?
Result: binds more weakly

Does “TGCGGATGGCTTAGAGCTTAATTGCTGAATCTGGTGCTGTAGCTCAACAT (double strand) [50-minus + 50-plus, sequentially added complementary strands]” bind [11]?
Result: binds more weakly

Does “TGCGGATGGCTTAGAGCTTAATTGCTGAATCTGGTGCTGTAGCTCAACAT (double strand) [50-minus + 50-plus, sequentially added complementary strands]” bind [12]?
Result: binds more weakly

Does “TGCGGATGGCTTAGAGCTTAATTGCTGAATCTGGTGCTGTAGCTCAACAT (double strand) [50-minus + 50-plus, sequentially added complementary strands]” bind [13]?
Result: binds more weakly
